# Experimental data reported in PubChem BioAssay AID504467 (National Center for Advancing Translational Sciences (NCATS), 2011).
# Screen size: about 330,000 compounds; about 7,700 (2.3%) were called active. The shares of active, inactive and inconclusive entries below differ from those in the screen. Calls come from the whole dose curve; as a rule, active = well fitted inhibition curve with a large enough effect; inconclusive = small, poorly fitted or top-dose-only effect, or effect the other way; inactive = flat fitted curve, though single readings scatter. A potency beside an inconclusive call is a rough fit, not a confirmed value.
# Test: qHTS screen for small molecules that inhibit ELG1-dependent DNA repair in human embryonic kidney (HEK293T) cells expressing luciferase-tagged ELG1; note: nearly all actives have a fitted effect of over 55% in size
# Settings: HEK293T ELG1-luciferase reporter, luminescence, 16 h, DNA damage induced by 5-fluorouridine; activity change, negative = inhibition: at 46.1 µM (top of the series)
# In short: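 Luminescence from the luciferase reporter, measured 30 min after ONE-Glo reagent at room temperature, was the read-out. Beforehand, 2,000 cells per well were exposed for 16 hr at 37 °C to 5-fluorouridine together with compound or vehicle.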
# % is set by controls: 0 for no effect and ±100 for the full control effect; potency is the fitted concentration of half-maximal effect.
SMILES,Potency,"activity change, negative = inhibition"
C=CCc1c(O)nc(SCC(=O)c2ccccc2)[nH]c1=O,"inconclusive: 29.1 µM [activator, single point]",
O=C(Nc1ccc(F)c(F)c1)c1ccc(F)c(S(=O)(=O)N2CCOCC2)c1,"inconclusive: 11.6 µM [inhibitor, partial curve, poor fit]",
OC[C@H](O)[C@H](O)[C@@H](O)[C@@H](O)[C@@H]1SC(c2ccccc2)=NN1c1ccccc1,"inconclusive: 29.1 µM [inhibitor, single point]",
O=C(NC1CCCC1)c1ccc(CSc2nc3ccncc3n2Cc2ccc(F)cc2)cc1,"inconclusive: 29.1 µM [inhibitor, partial curve, poor fit]",
CCOC(=O)c1ccc(-c2c(C(=O)OCC)oc3cc(O)c(CC)cc3c2=O)o1,"inconclusive: 23.1 µM [inhibitor, single point]",
COc1ccc2nc(Nc3nc(-c4ccncc4)cs3)sc2c1,"inconclusive: 29.1 µM [activator, single point]",
COc1ccccc1C(CC(=O)c1ccccc1)CC(=O)c1ccccc1,"inconclusive: 32.6 µM [inhibitor, partial curve, poor fit]",
CCOC(=O)c1c(CN2CCCCC2)n(C)c2cc(Br)c(O)cc12,"inconclusive: 16.4 µM [inhibitor, partial curve]",
CC(C)CCNC(=S)Nc1ccc([N+](=O)[O-])cc1,"inconclusive: 32.6 µM [inhibitor, single point]",
CCc1ccc(Nc2ncc3c(n2)CC(C)(C)CC3=O)cc1,"inconclusive: 5.17 µM [activator, partial curve]",
S=C(NC1CCCCC1)N1CCN(c2ncccn2)CC1,,inactive: -15.2%
CNC(=O)c1cc(C(=O)c2c(Cl)cccc2Cl)c[nH]1,"inconclusive: 29.1 µM [activator, single point]",
CN(C)CC(CCC(CN(C)C)C(O)(c1ccccc1)c1ccccc1)C(O)(c1ccccc1)c1ccccc1 (centres undefined),active: 18.3 µM,
CC1CN(C(=O)c2ccc(COc3ccc(C(C)C)cc3)o2)CC(C)O1 (centres undefined),"inconclusive: 18.3 µM [activator, partial curve]",
O=C(CCCc1ccccc1)c1ccc2c(c1)OCCO2,"inconclusive: 0.058 µM [activator, full curve, poor fit]",
O=C(O)c1cc(O)ccc1NC(=O)c1cccc2ccccc12,"inconclusive: 18.3 µM [activator, single point]",
Cc1cccc(-n2ncc3c2CCCC3NC(=O)C2(C(N)=O)CC2)c1C (centres undefined),,inactive: -2.71%
Cc1cccc(CN2CCCC(C(=O)Nc3ccc(-c4cscn4)cc3)C2)c1 (centres undefined),,inactive: -20.2%
COc1ccc2c(c1)NC(=O)CC(c1ccccc1)=N2,"inconclusive: 2.59 µM [activator, full curve]",
CCC(=O)N(Cc1cc2cc(OC)ccc2[nH]c1=O)c1cccc(C)c1,,inconclusive: 83.4% [activator]
CN1CC(=O)N/C1=N\C(=O)Nc1ccc2c(c1)N(C)C(=O)CS2,"inconclusive: 16.4 µM [activator, partial curve, poor fit]",
COc1ccc(CNC(=O)CN2C(=O)NC3(CCCCCCC3)C2=O)cc1,,inactive: 0%
O=C(Nc1ccc(NC(=O)c2ccco2)nc1)c1ccccn1,"inconclusive: 2.06 µM [activator, partial curve]",

SMILES,Potency,"activity change, negative = inhibition"
COc1ccc(C(=O)NCCn2cc(SCC(=O)NCc3ccco3)c3ccccc32)cc1,"inconclusive: 0.366 µM [activator, full curve, poor fit]",
CCn1nc(C)c(CNC(=O)CC2C(=O)NCCN2CC(C)C)c1C (centres undefined),,inactive: 12.9%
CCOC(=O)c1c(-c2ccc(-c3ccccc3)cc2)csc1NC(=O)C1C2CCC(O2)C1C(=O)O (centres undefined),,inactive: -5.76%
Cc1nnc2c3ccccc3c(Cl)nn12,"inconclusive: 16.4 µM [activator, partial curve]",
O=C(COc1ccccc1F)NNC(=O)c1cc(Br)ccc1Cl,,inactive: 16.7%
O=C(COC(=O)c1cccc(S(=O)(=O)N2CCCCCC2)c1)NCc1ccc(Cl)cc1,"inconclusive: 13 µM [activator, partial curve, poor fit]",
O=C(NCC1CCCO1)C1CC(=O)N(c2cccc(Cl)c2)C1 (centres undefined),"inconclusive: 32.6 µM [activator, partial curve, poor fit]",
COc1ccc(NC(=O)CC2C(=O)N(c3ccc(Cl)cc3)C(=S)N2CCc2ccncc2)cc1 (centres undefined),,inactive: -4.03%
Cc1[nH]c2ccccc2c1/C=C/c1nc2ccccc2c(=O)n1CCO,active: 1.83 µM,
Cc1[nH]c2ccccc2c(=O)c1C(=O)/C=C/c1ccccc1,active: 8.2 µM,
O=[N+]([O-])c1ccc(N2CCN(CCOCCO)CC2)c([N+](=O)[O-])c1,,inactive: 3.19%
O=C(O)CCC(=O)N1N=C(c2ccccc2)CC1c1ccc2c(c1)OCO2 (centres undefined),,inactive: -3.05%
CCOC(=O)C(=CNc1ccc(Cl)cn1)C(=O)OCC,"inconclusive: 25.9 µM [inhibitor, partial curve]",
COCCNC(=O)CSc1nc2ccccc2c(=O)n1-c1cccc(OC)c1,,inactive: 1.43%
COc1cc(C(=O)OCC(=O)N2CCC(C)CC2)cc2c1OCCO2,,inactive: 22.3%
Cc1cc(C)c2nc(/N=C(\N)NC(=O)Nc3ccccc3)nc(C)c2c1,"inconclusive: 10.3 µM [inhibitor, partial curve, poor fit]",
COc1ccc2[nH]c(=O)c(NC(N)=S)nc2c1,"inconclusive: 29.1 µM [activator, partial curve, poor fit]",
COC(=O)COc1ccc2cc(-c3ccccc3)c(=O)oc2c1,,inactive: 8.99%
C(=N\Nc1nc(N2CCCC2)nc(N2CCCC2)n1)/c1ccccc1OCc1ccccc1,"inconclusive: 29.1 µM [inhibitor, single point]",
CCCCOc1ccc(CN2CCC(O)CC2)cc1,"inconclusive: 23.1 µM [activator, partial curve]",
Cc1ccsc1/C=N/Nc1nc2ccccc2[nH]1,"inconclusive: 3.26 µM [activator, partial curve]",
CN(C(=O)CSc1nnnn1-c1ccccc1)C1CCS(=O)(=O)C1 (centres undefined),,inactive: 10.8%
O=C(NCCCn1ccnc1)c1nn2c(C(F)(F)F)cc(-c3ccccc3)nc2c1Cl,,inactive: -7.5%

# Sorted by count of non-hydrogen atoms (high to low): four of the compounds above.
SMILES,Potency,"activity change, negative = inhibition"
COc1ccc(C(=O)NCCn2cc(SCC(=O)NCc3ccco3)c3ccccc32)cc1,"inconclusive: 0.366 µM [activator, full curve, poor fit]",
O=C(O)c1cc(O)ccc1NC(=O)c1cccc2ccccc12,"inconclusive: 18.3 µM [activator, single point]",
COc1ccc2c(c1)NC(=O)CC(c1ccccc1)=N2,"inconclusive: 2.59 µM [activator, full curve]",
Cc1ccsc1/C=N/Nc1nc2ccccc2[nH]1,"inconclusive: 3.26 µM [activator, partial curve]",

# (further entries)

SMILES,Potency,"activity change, negative = inhibition"
CCOC(=O)c1cc(C)nc(Sc2ccc(C)cc2)c1C#N,"inconclusive: 29.1 µM [inhibitor, single point]",
CC(Oc1ccc(Cl)cc1Cl)c1nc(-c2ccc(NC(=O)c3ccncc3)cc2)no1 (centres undefined),active: 18.4 µM,
CCCCOC(=O)c1ccc(NC(=O)COC(=O)C2CSC3(C)CCC(=O)N23)cc1 (centres undefined),"inconclusive: 25.9 µM [activator, single point]",
CCn1c(SCC(=O)Nc2cc(F)ccc2C)nnc1-c1ccccc1O,"inconclusive: 25.9 µM [inhibitor, single point]",
Cc1ccccc1NC(=O)c1ccc(Cl)c(NC(=O)c2cccnc2)c1,,inactive: -4.87%
Cc1ccc(-c2csc3nc(C)n(N)c(=O)c23)cc1,,inactive: 4.83%
O=C(CCNC(=O)c1ccccc1Cl)Nc1nc(-c2ccc3ccccc3c2)cs1,,inactive: -24.5%
COC(=O)c1ccccc1NC(=O)C(=O)NCC1CCCO1 (centres undefined),"inconclusive: 16.4 µM [activator, single point]",
CCOC(=O)c1nn(-c2ccc3c(c2)CCN3C(C)=O)cc1O,"inconclusive: 1.84 µM [activator, full curve]",
COc1ccc(CNC(=O)C(=O)c2cn(CC(=O)N3CCCC3)c3ccccc23)cc1,"inconclusive: 16.4 µM [activator, partial curve, poor fit]",
CC1(C)C2CCC1(C)C(NC(=O)/C=C/c1ccccc1)C2 (centres undefined),"inconclusive: 29.1 µM [inhibitor, single point]",
COc1cccc2[nH]c3c(N4CCC(C)CC4)ncnc3c12,"inconclusive: 11.6 µM [inhibitor, partial curve]",
COc1ccc(S(=O)(=O)N(C)C[C@@H]2Oc3c(NS(C)(=O)=O)cccc3C(=O)N([C@@H](C)CO)C[C@H]2C)cc1,"inconclusive: 29.1 µM [activator, partial curve, poor fit]",
CCCn1c(C)cc(/C=C(\C#N)C(=O)OCC(=O)Nc2cc(OC)c(OC)c(OC)c2)c1C,"inconclusive: 8.2 µM [activator, partial curve]",
Cc1cc(F)ccc1N1CCC(N2CCN(CCC(C)C)C(CCO)C2)CC1 (centres undefined),"inconclusive: 8.2 µM [inhibitor, partial curve, poor fit]",
Cc1c(C(=O)Nc2ccncc2)oc2ccccc12,"inconclusive: 32.6 µM [inhibitor, partial curve, poor fit]",
O=C(CCl)Nc1ccc(Oc2cnc3ccccc3n2)cc1,"inconclusive: 4.61 µM [inhibitor, partial curve, poor fit]",
COc1ccc(O[C@H]2C=C[C@@H](c3ccccc3)O[C@@H]2COC(=O)CC/C(C)=N/OC[C@@H](O)COCc2ccco2)cc1,"inconclusive: 32.6 µM [inhibitor, single point]",
CCC1CCCCN1C(=S)NC(=O)c1ccco1 (centres undefined),"inconclusive: 16.4 µM [activator, partial curve, poor fit]",
Clc1ccc(-c2nnc(-c3ccccc3)nc2N2CCSCC2)cc1,"inconclusive: 29.1 µM [inhibitor, partial curve, poor fit]",
Cc1cc(C)n2nc3nc(N4CCCC4)nc(-c4ccccc4)c3c2n1,active: 10.3 µM,
CC(NC(=O)Cn1nc(C(=O)O)c2ccccc2c1=O)C12CC3CC(CC(C3)C1)C2 (centres undefined),,inactive: 11.8%
CCC(=O)Nc1ccc2ccccc2c1,"inconclusive: 23.1 µM [activator, single point]",
